In paper PMC11865472 one finds binding data, which are given here for 1 substance.

No constants are given. Whether binding was seen depends on the method and setting. Binding can be weak; no strength is given.

The experiment addresses T1, inhibin A (InhA), mature heterodimer, unlabelled (UniProt P05111).
T1 sequence 1: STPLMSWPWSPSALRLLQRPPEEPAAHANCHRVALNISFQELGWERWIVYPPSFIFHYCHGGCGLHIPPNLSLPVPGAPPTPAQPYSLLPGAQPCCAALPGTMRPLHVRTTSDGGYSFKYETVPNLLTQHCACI
T1 sequence 2: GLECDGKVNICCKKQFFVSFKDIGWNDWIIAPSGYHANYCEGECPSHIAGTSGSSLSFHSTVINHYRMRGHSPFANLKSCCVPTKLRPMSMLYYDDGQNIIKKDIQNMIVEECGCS
The experiment in a line: SPR; InhA immobilized on the chip surface; BG_ZP-C variants injected in a 2-fold dilution series; how InhA was coupled is not said; both purified. On the technique in general: Surface plasmon resonance follows binding to a sensor surface in real time, without labels.

In the case of “rat betaglycan ZP-C domain (BG_(ZP-C)), mammalian-expressed (domain or fragment)”, the binding entry is given as “binds”.
